Test results taken from the supplement of paper PMC10626197.
Where a name gives a salt, the structure may show the parent alone. ± gives the standard deviation of the averaged measurements. Some well-known active drugs show little effect in this data set, so a weak value is uncertain.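 The breast cancer cell line MCF7 was treated with drug pairs over a dose grid. Each plate included DMSO-only wells as the untreated reference and a doxorubicin series as the total-kill control. These viability readings have no hit threshold applied.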

Test system: MCF7
Assay: cell viability relative to DMSO control (raw); higher = more viable cells
Conditions: exposure time 72 h
Description: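 MCF7 cells, 1000 cells/well in 384-well plates, treated with 6x6 dose matrices of drug pairs (1:3 serial dilutions, DMSO as lowest dose) for 72 h at 37 °C. Viability read by CellTiter-Glo luminescence, 3 biological replicates. Normalised viability sets 0% at the highest doxorubicin dose and 100% at the 0,0 µM control per combination.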

Cc1ccc(NC(=O)c2ccc(CN3CCN(C)CC3)cc2)cc1Nc1nccc(-c2cccnc2)n1 [Imatinib] + Cc1ncc(NC(=O)c2ccc(CN3CCN(C)CC3)c(C(F)(F)F)c2)cc1Nc1nccc(-c2cccnc2)n1 [Flumatinib (mesylate)]
cell viability [%]
Conditions	drug 2 concentration 0 µM	drug 2 concentration 0.617284 µM	drug 2 concentration 1.85185 µM	drug 2 concentration 5.55556 µM	drug 2 concentration 16.6667 µM	drug 2 concentration 50 µM
drug 1 concentration 0.123457 µM	88.4 ± 3	93.9 ± 13	86.7 ± 2.9	90.9 ± 4.3	1 ± 0.12	0.2 ± 0.0027
drug 1 concentration 0.37037 µM	96 ± 6	99.6 ± 17	92.2 ± 5.1	97.7 ± 3.6	0.666 ± 0.11	0.189 ± 0.021
drug 1 concentration 1.11111 µM	87 ± 5.7	88.3 ± 6.6	89.7 ± 5.8	98.8 ± 8	1.03 ± 0.1	0.149 ± 0.023
drug 1 concentration 3.33333 µM	92 ± 7.4	96.5 ± 9.3	94 ± 5.2	91 ± 9.6	30.4 ± 51	0.237 ± 0.093
drug 1 concentration 10 µM	88.9 ± 8.1	94 ± 8.7	86.9 ± 6.5	102 ± 7.1	1.34 ± 0.4	0.35 ± 0.011

CC(C)Cn1cnc2c(N)nc3ccccc3c21 [Imiquimod] + Cn1c(=O)c2nc[nH]c2n(C)c1=O [Theophylline]
cell viability [%]
Conditions	drug 2 concentration 0 µM	drug 2 concentration 0.123457 µM	drug 2 concentration 0.37037 µM	drug 2 concentration 1.11111 µM	drug 2 concentration 3.33333 µM	drug 2 concentration 10 µM
drug 1 concentration 0.0123457 µM	107 ± 7.9	102 ± 4	104 ± 8	103 ± 3	107 ± 9	104 ± 3.4
drug 1 concentration 0.037037 µM	99.7 ± 6	96.9 ± 5.6	100 ± 6.9	99.6 ± 9.3	97.4 ± 18	94.4 ± 13
drug 1 concentration 0.111111 µM	98.3 ± 4	96.4 ± 9.2	97.7 ± 5.4	100 ± 6	100 ± 3.5	94.8 ± 3.3
drug 1 concentration 0.333333 µM	107 ± 5.7	95 ± 5.4	109 ± 9.8	97.1 ± 2.9	107 ± 4	103 ± 11
drug 1 concentration 1 µM	113 ± 12	106 ± 17	108 ± 13	110 ± 14	111 ± 14	101 ± 5.6

CS(=O)(=O)CCNCc1ccc(-c2ccc3ncnc(Nc4ccc(OCc5cccc(F)c5)c(Cl)c4)c3c2)o1 [Lapatinib] + C[C@]12C=CC(=O)C=C1CC[C@@H]1[C@@H]2[C@@H](O)C[C@@]2(C)[C@H]1CC[C@]2(O)C(=O)CO [Prednisolone]
cell viability [%]
Conditions	drug 2 concentration 0 µM	drug 2 concentration 0.0617284 µM	drug 2 concentration 0.185185 µM	drug 2 concentration 0.555556 µM	drug 2 concentration 1.66667 µM	drug 2 concentration 5 µM
drug 1 concentration 0.123457 µM	92.6 ± 15	94.5 ± 7.3	82.4 ± 8.8	91 ± 7.9	86.4 ± 5.3	87.1 ± 11
drug 1 concentration 0.37037 µM	100 ± 12	103 ± 12	94.6 ± 1.8	106 ± 10	93.5 ± 12	89.2 ± 2.5
drug 1 concentration 1.11111 µM	90.9 ± 3.1	95.3 ± 14	88.4 ± 2.7	84.2 ± 6.5	87.5 ± 12	87.9 ± 10
drug 1 concentration 3.33333 µM	80.9 ± 2.3	82.3 ± 3.2	82.4 ± 7.7	86 ± 7.5	78 ± 7.9	70.3 ± 3.4
drug 1 concentration 10 µM	2.28 ± 0.18	2.09 ± 0.41	2.5 ± 0.2	2.17 ± 0.11	1.97 ± 0.79	2.22 ± 0.11

CS(=O)(=O)CCNCc1ccc(-c2ccc3ncnc(Nc4ccc(OCc5cccc(F)c5)c(Cl)c4)c3c2)o1 [Lapatinib] + Cc1ncc(NC(=O)c2ccc(CN3CCN(C)CC3)c(C(F)(F)F)c2)cc1Nc1nccc(-c2cccnc2)n1 [Flumatinib (mesylate)]
cell viability [%]
Conditions	drug 2 concentration 0 µM	drug 2 concentration 0.617284 µM	drug 2 concentration 1.85185 µM	drug 2 concentration 5.55556 µM	drug 2 concentration 16.6667 µM	drug 2 concentration 50 µM
drug 1 concentration 0.123457 µM	86.3 ± 11	81.5 ± 7.4	86.2 ± 8.4	84.5 ± 6.5	1.13 ± 0.13	0.147 ± 0.028
drug 1 concentration 0.37037 µM	91.8 ± 16	80.3 ± 16	87.4 ± 13	90.6 ± 12	0.775 ± 0.2	0.166 ± 0.011
drug 1 concentration 1.11111 µM	86.5 ± 8.4	87.2 ± 7.6	89.5 ± 10	84.9 ± 7	0.684 ± 0.32	0.149 ± 0.041
drug 1 concentration 3.33333 µM	80.7 ± 8.2	76.5 ± 13	78.1 ± 6.4	72.7 ± 6.4	0.181 ± 0.066	0.159 ± 0.051
drug 1 concentration 10 µM	8.56 ± 13	29.9 ± 26	0.712 ± 0.21	0.353 ± 0.024	0.172 ± 0.031	0.291 ± 0.016

Nc1cccc2c1CN(C1CCC(=O)NC1=O)C2=O (stereo not given) [Lenalidomide] + N#CCC1(n2cc(-c3ncnc4[nH]ccc34)cn2)CN(C2CCN(C(=O)c3ccnc(C(F)(F)F)c3F)CC2)C1 [Itacitinib]
cell viability [%]
Conditions	drug 2 concentration 0 µM	drug 2 concentration 0.185185 µM	drug 2 concentration 0.555556 µM	drug 2 concentration 1.66667 µM	drug 2 concentration 5 µM	drug 2 concentration 15 µM
drug 1 concentration 0.493827 µM	113 ± 15	113 ± 11	112 ± 15	108 ± 3.9	110 ± 8.5	103 ± 8.9
drug 1 concentration 1.48148 µM	116 ± 11	112 ± 7.9	115.3 ± 0.32	110 ± 8.5	111 ± 11	111 ± 7
drug 1 concentration 4.44444 µM	108 ± 11	104 ± 10	111 ± 14	107 ± 10	107 ± 17	103 ± 8
drug 1 concentration 13.3333 µM	110 ± 10	115 ± 4.8	117 ± 14	113 ± 16	104 ± 5.5	110 ± 6.8
drug 1 concentration 40 µM	117 ± 21	116 ± 7.3	116 ± 4.7	116 ± 21	122 ± 13	119 ± 11

N#Cc1ccc(C(c2ccc(C#N)cc2)n2cncn2)cc1 [Letrozole] + NCCc1ccc(O)c(O)c1 [Dopamine HCl]
cell viability [%]
Conditions	drug 2 concentration 0 µM	drug 2 concentration 0.123457 µM	drug 2 concentration 0.37037 µM	drug 2 concentration 1.11111 µM	drug 2 concentration 3.33333 µM	drug 2 concentration 10 µM
drug 1 concentration 0.0246914 µM	113 ± 13	111 ± 10	112 ± 14	125 ± 14	114 ± 7.1	103 ± 13
drug 1 concentration 0.0740741 µM	125 ± 15	125 ± 22	132 ± 18	129 ± 26	142 ± 21	133 ± 13
drug 1 concentration 0.222222 µM	114 ± 18	104 ± 10	108 ± 7.7	104 ± 12	108 ± 7	110 ± 2.3
drug 1 concentration 0.666667 µM	115 ± 12	118 ± 5.3	119 ± 5.8	114 ± 9.4	115 ± 7.5	106 ± 7.2
drug 1 concentration 2 µM	121 ± 12	117 ± 11	119 ± 7.7	122 ± 9.6	122 ± 19	121 ± 20

CN(Cc1cnc2nc(N)nc(N)c2n1)c1ccc(C(=O)N[C@@H](CCC(=O)O)C(=O)O)cc1 [Methotrexate] + COc1ccccc1OCC(O)COC(N)=O [Methocarbamol]
cell viability [%]
Conditions	drug 2 concentration 0 µM	drug 2 concentration 0.0679012 µM	drug 2 concentration 0.203704 µM	drug 2 concentration 0.611111 µM	drug 2 concentration 1.83333 µM	drug 2 concentration 5.5 µM
drug 1 concentration 0.00617284 µM	103 ± 4.9	105 ± 3.9	108 ± 2.6	97.6 ± 16	100 ± 7.6	111 ± 7.1
drug 1 concentration 0.0185185 µM	119 ± 6	113 ± 5.1	122 ± 7.1	110 ± 4.8	117 ± 9.4	121 ± 2.6
drug 1 concentration 0.0555556 µM	99.5 ± 12	105 ± 14	108 ± 11	100 ± 14	96.3 ± 16	94.9 ± 12
drug 1 concentration 0.166667 µM	96.3 ± 4.1	93.7 ± 5.9	98.2 ± 8.5	97 ± 4.2	95.4 ± 8.5	89.4 ± 3.4
drug 1 concentration 0.5 µM	105 ± 3.5	107 ± 6.6	96.5 ± 4.4	96.5 ± 4.8	101 ± 6.6	99.5 ± 5.2

CN(Cc1cnc2nc(N)nc(N)c2n1)c1ccc(C(=O)N[C@@H](CCC(=O)O)C(=O)O)cc1 [Methotrexate] + Cc1ncc(NC(=O)c2ccc(CN3CCN(C)CC3)c(C(F)(F)F)c2)cc1Nc1nccc(-c2cccnc2)n1 [Flumatinib (mesylate)]
cell viability [%]
Conditions	drug 2 concentration 0 µM	drug 2 concentration 0.617284 µM	drug 2 concentration 1.85185 µM	drug 2 concentration 5.55556 µM	drug 2 concentration 16.6667 µM	drug 2 concentration 50 µM
drug 1 concentration 0.00617284 µM	100 ± 22	90.5 ± 7	94.7 ± 5	91.1 ± 3.6	87.9 ± 6.6	0.493 ± 0.22
drug 1 concentration 0.0185185 µM	80.2 ± 1.7	88 ± 1.9	85.9 ± 4.7	79.76 ± 0.71	52.3 ± 45	0.27 ± 0.12
drug 1 concentration 0.0555556 µM	83.5 ± 11	69.7 ± 4.9	63.1 ± 3.2	63.1 ± 1	0.946 ± 0.22	0.17 ± 0.029
drug 1 concentration 0.166667 µM	84.4 ± 5.1	74.65 ± 0.38	66.6 ± 0.71	69.4 ± 2.8	0.412 ± 0.08	0.161 ± 0.025
drug 1 concentration 0.5 µM	83.6 ± 8.1	80.2 ± 2.9	71.2 ± 5.3	70.5 ± 2	0.761 ± 0.11	0.323 ± 0.024

CN(Cc1cnc2nc(N)nc(N)c2n1)c1ccc(C(=O)N[C@@H](CCC(=O)O)C(=O)O)cc1 [Methotrexate] + Nc1ncn([C@@H]2O[C@H](CO)[C@@H](O)[C@H]2O)c(=O)n1 [5-Azacytidine]
cell viability [%]
Conditions	drug 2 concentration 0 µM	drug 2 concentration 0.123457 µM	drug 2 concentration 0.37037 µM	drug 2 concentration 1.11111 µM	drug 2 concentration 3.33333 µM	drug 2 concentration 10 µM
drug 1 concentration 0.00617284 µM	105 ± 10	99.5 ± 16	105 ± 4	99.9 ± 5.1	99.3 ± 7.6	79.3 ± 8.1
drug 1 concentration 0.0185185 µM	97 ± 11	94.8 ± 7.9	108 ± 9.6	94.9 ± 4.7	97.7 ± 15	66.1 ± 13
drug 1 concentration 0.0555556 µM	92.8 ± 4	89.7 ± 1.6	89.4 ± 5.6	82.4 ± 4.2	85.1 ± 5.8	75.8 ± 10
drug 1 concentration 0.166667 µM	81.8 ± 3	86.1 ± 3.8	88.7 ± 14	91.8 ± 6.3	84.6 ± 8.3	62.6 ± 16
drug 1 concentration 0.5 µM	112 ± 12	118 ± 11	118 ± 8	126 ± 11	99.6 ± 9.9	72.5 ± 16
